Molecular target: Belimumab (IgG1)
Assay: SPR as in Example 5

B1: Affinity ligand of SEQ ID NO: 51 (dimeric Ig binding protein) (designed binder)
chain: AQHDKIQQAAFHEILHLPNLTEEQRNKFIQSLRDDPSVSLEILCEAKKLNDAQAPKIAAQHDKIQQAAFHEILHLPNLTEEQRNKFIQSLRDDPSVSLEILAEAKKLNDAQAPK
notes: also called ID51
- Kd: 47.4 nM

Reference: patent US12570690 (NAVIGO PROTEINS, dated 2026)
